Test results from patent publication US4260607A, “Cephalosporin esters” (Takeda Chemical Industries, Ltd., priority 1976, dated 1981).

Experiment: in vivo
Conditions: rat, po, 100 mg/kg

**Q.** For `CC1=C(C(=O)O)N2C(=O)[C@@H](NC(=O)[C@H](N)c3ccccc3)[C@H]2SC1` [Cephalexin, reference compound], which concentration at 0.5 h is on record?
**A.** 26300 ng/mL

**Q.** What about the concentration at 1 h of the same compound?
**A.** 28900 ng/mL

**Q.** What about the concentration at 2 h of the same compound?
**A.** 16300 ng/mL

**Q.** And the concentration at 4 h?
**A.** 7900 ng/mL
